This assay concerns the target T1, Shc (UniProt P29353).
T1 sequence (looked up): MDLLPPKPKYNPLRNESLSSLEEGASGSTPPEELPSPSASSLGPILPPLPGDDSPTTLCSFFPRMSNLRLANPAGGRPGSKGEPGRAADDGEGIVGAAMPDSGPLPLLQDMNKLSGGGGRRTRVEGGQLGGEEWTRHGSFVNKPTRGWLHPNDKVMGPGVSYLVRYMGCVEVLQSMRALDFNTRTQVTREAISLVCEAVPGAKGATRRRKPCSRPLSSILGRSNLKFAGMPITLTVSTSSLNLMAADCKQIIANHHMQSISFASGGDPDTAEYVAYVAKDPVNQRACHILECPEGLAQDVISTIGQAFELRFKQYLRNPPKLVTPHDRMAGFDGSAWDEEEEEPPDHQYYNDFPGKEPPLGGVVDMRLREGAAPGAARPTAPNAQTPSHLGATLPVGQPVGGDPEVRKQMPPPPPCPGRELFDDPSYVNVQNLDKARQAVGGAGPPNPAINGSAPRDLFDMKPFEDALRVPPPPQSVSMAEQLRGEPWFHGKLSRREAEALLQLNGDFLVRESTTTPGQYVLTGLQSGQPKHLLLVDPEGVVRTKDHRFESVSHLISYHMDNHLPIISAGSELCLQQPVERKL
Nature of the assay: co-immunoprecipitation, western blot.

Chains of the proteins cited; added tags and fusions are not shown. Lines headed by an entry give the natural chain unless they say otherwise; changes in a name come on top.
UniProt O75131: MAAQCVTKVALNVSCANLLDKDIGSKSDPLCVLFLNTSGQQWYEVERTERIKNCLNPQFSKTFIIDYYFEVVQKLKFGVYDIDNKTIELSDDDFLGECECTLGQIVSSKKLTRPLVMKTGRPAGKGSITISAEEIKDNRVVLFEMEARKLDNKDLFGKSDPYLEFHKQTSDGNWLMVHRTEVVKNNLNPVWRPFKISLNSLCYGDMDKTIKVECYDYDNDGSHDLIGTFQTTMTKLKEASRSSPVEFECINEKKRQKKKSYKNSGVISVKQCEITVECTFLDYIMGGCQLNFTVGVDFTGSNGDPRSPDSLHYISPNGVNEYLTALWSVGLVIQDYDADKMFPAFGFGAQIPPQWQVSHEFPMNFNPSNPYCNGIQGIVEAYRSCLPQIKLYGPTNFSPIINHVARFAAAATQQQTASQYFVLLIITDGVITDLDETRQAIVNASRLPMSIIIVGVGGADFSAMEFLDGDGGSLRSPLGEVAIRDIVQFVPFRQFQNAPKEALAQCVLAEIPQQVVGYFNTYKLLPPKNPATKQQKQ

These are yes or no findings as the source states them, for the method shown. In cells and extracts the contact can be indirect. Some binding calls cover weakened binding; strength is not graded here.

For the substance Copine III (from UniProt O75131 1-537), the binding result is “binds”.

The values are drawn from patent publication EP2292266A1.
